Source: PubChem BioAssay AID2762 (National Center for Advancing Translational Sciences (NCATS), 2010)
Inconclusive results, whose numbers are uncertain, are shown with a selection of clear calls. Potencies of inconclusive entries are doubtful fits and often do not repeat. Active and inactive are the calls of the source. The call rests on the fitted dose curve; in most records, active means well fitted inhibition curve with a large enough effect; inconclusive means small, poorly fitted or top-dose-only effect, or effect the other way; inactive means no such curve, though single readings can be large or run the other way.

Chains of the proteins cited; added tags and fusions are not shown. Lines headed by an entry give the natural chain unless they say otherwise; changes in a name come on top.
UniProt P51450: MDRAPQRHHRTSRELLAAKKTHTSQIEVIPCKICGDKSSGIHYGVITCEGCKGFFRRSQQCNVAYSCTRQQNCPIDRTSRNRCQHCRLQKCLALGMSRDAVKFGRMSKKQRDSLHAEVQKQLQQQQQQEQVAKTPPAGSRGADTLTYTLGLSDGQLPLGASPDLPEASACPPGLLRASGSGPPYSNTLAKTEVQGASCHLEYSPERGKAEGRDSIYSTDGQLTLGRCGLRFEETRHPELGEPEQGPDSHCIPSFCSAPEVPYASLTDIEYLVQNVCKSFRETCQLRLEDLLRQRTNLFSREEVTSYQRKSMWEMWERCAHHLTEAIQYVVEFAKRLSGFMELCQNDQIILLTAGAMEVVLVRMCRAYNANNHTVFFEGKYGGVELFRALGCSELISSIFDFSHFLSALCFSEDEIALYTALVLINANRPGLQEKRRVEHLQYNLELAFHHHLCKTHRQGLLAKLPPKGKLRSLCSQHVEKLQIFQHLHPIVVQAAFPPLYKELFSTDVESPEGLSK

The compounds below were run against Nuclear receptor ROR-gamma (Mus musculus) (UniProt P51450) (assay: Concentration response confirmation assay for inhibitors of ROR gamma transcriptional activity). Details: Drosophila S2 Gal4-RORgamma UAS-luciferase, 20 h; series mostly up to 46.1 µM; activity change, negative = inhibition: at the top concentration.
Summary of the method: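 Schneider cells (Drosophila), stable Gal4 DBD–ROR gamma + UAS-luc; 1 hr cmpd preincubation; Cu2+ induction 700 uM final; 20 hr ambient; luminescence.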

| SMILES | Potency | activity change, negative = inhibition |
| --- | --- | --- |
| CCN(C1CCCCC1)S(=O)(=O)c1ccc(S(=O)(=O)NCc2ccncc2)cc1 | inconclusive: 2.81 µM [activator, full curve] |  |
| Cc1cc(C)n(-c2nc(SCC(=O)O)c3c4c(sc3n2)CCCC4)n1 | inconclusive: 12.5 µM [inhibitor, partial curve, poor fit] |  |
| COC1CCN(C(=O)c2cc(COc3ccc(-n4cncn4)cc3)on2)CC1 | inconclusive: 22.3 µM [activator, partial curve, poor fit] |  |
| Cc1cc(Br)c2nc3c(c(C(=O)O)c2c1)CCCCC3 | inconclusive: 0.125 µM [activator, full curve, poor fit] |  |
| Cc1cc(-c2ccccc2)nc(N2CCC(C(=O)NCc3ccccc3Cl)CC2)n1 |  | inactive: -6.36% |
| O=C(Nc1ccccc1)Nc1sccc1-c1nc2ccccc2s1 | inconclusive: 28.1 µM [inhibitor, single point] |  |
| COCC1CCCCN1C(=O)c1cc(COc2ccc3ncccc3c2)on1 (stereo not given) | inconclusive: 0.281 µM [activator, full curve, poor fit] |  |
| COc1nc(N/N=C/c2cc3c(cc2Br)OCO3)nc(N2CCOCC2)n1 | inconclusive: 3.97 µM [activator, full curve, poor fit] |  |
| O=C1c2ccccc2C(=O)c2c1ccc1c(=O)n(C3CCCCC3)[nH]c21 | inconclusive: 15.8 µM [inhibitor, partial curve, poor fit] |  |
| O=C(NC(=S)Nc1nc(-c2ccc(Br)cc2)cs1)c1cccnc1 |  | inactive: -22.4% |
| COC(=O)c1ccc2nc(Nc3nc4ccc(F)cc4s3)sc2c1 | active: 0.315 µM |  |
| O=c1oc2c3c(nn2c2ccccc12)CCCC3 |  | inactive: -0.931% |
| CCOc1ccc(C(=O)Nc2nc3ccccc3[nH]2)cc1OCC | active: 11.2 µM |  |
| O=C(CC(SCc1ccco1)c1ccc(O)cc1)c1cccs1 (stereo not given) | inconclusive: 15.8 µM [activator, partial curve, poor fit] |  |
| COc1ccc(OC)c(/C=C2\SC(=S)N(C(C(=O)O)c3ccccc3)C2=O)c1 (stereo not given) |  | inactive: 13.7% |
| CCOC(=O)C1CCN(CC(=O)Nc2cc(C)nn2-c2nc3ccccc3s2)CC1 | inconclusive: 35.3 µM [inhibitor, single point] |  |
| C(=C/c1nccc2c1[nH]c1ccccc12)/c1ccc2c(c1)OCO2 | inconclusive: 0.199 µM [inhibitor, full curve, poor fit] |  |
| COc1ccc(-c2c[n+]3c(n2-c2ccc(C)cc2)CCCCC3)cc1 | inconclusive: 2.5 µM [activator, full curve] |  |

| SMILES | Potency | activity change, negative = inhibition |
| --- | --- | --- |
| Cc1cccc(NC(=O)c2cc3ccccc3o2)c1 | inconclusive: 14.1 µM [inhibitor, partial curve, poor fit] |  |
| COC(=O)Cn1c(CN2CCc3ccccc3C2)nc2c1c(=O)n(C)c(=O)n2C | inconclusive: 0.705 µM [activator, full curve, poor fit] |  |
| Cc1cccc(-c2nc3cc(NC(=O)C4CCCO4)ccc3o2)c1 (stereo not given) | active: 0.396 µM |  |
| Cc1ccc(NC(=S)NCCN(C2CCCCC2)C2CCCC2)cc1C | inconclusive: 9.96 µM [inhibitor, full curve, poor fit] |  |
| COc1ccc2nc(NC(=O)c3sc4nc(C)cc(C)c4c3N)sc2c1 | active: 0.0199 µM |  |
| Cc1ccc(S(=O)(=O)NCc2ccncc2)c(C)c1C | inconclusive: 0.499 µM [activator, partial curve, poor fit] |  |
| COC(=O)Cn1c(CN2CCN(c3ccc(F)cc3)CC2)nc2c1c(=O)n(C)c(=O)n2C | inconclusive: 11.2 µM [inhibitor, partial curve, poor fit] |  |
| c1csc(CCNc2ncnc3sc4c(c23)CCC4)c1 | inconclusive: 7.91 µM [activator, partial curve] |  |
| Cc1ccc(-c2cn(-c3ccccc3)c3[n+]2CCCS3)cc1 | inconclusive: 19.9 µM [activator, partial curve] |  |
| Cc1cc(C)n(-c2nnc3c4ccccc4n(C)c3n2)n1 | inconclusive: 15.8 µM [inhibitor, partial curve, poor fit] |  |
| C=CCn1c(SCC(=O)c2ccc(OC)cc2)nnc1-c1cc2cccc(OC)c2o1 | inconclusive: 7.91 µM [activator, partial curve, poor fit] |  |
| CCOC(=O)[C@@H]1[C@H]2COc3ccc(Br)cc3[C@@H]2N2C(=O)N(c3ccccc3)C(=O)[C@@]12C | inconclusive: 14.1 µM [inhibitor, partial curve, poor fit] |  |
| Cc1cc(C)c2nc(NC(=O)C3CCCO3)sc2c1 (stereo not given) | inconclusive: 25 µM [activator, single point] |  |
| CCOC(=O)[C@@H]1[C@H]2COc3ccccc3[C@@H]2N2C(=O)N(c3ccc(OC)cc3)C(=O)[C@@]12C | inconclusive: 0.353 µM [activator, full curve, poor fit] |  |
| COc1ccc2c(c1)O/C(=C\c1ccccc1C)C2=O | inconclusive: 0.499 µM [inhibitor, full curve, poor fit] |  |
| Cc1ccc(OCCCC(=O)Nc2nc3ccccc3[nH]2)cc1 | inconclusive: 31.5 µM [inhibitor, partial curve, poor fit] |  |
| C=CCNc1nc(Nc2ccc([N+](=O)[O-])cc2)nc(N2CCCC2)n1 | inconclusive: 4.99 µM [inhibitor, full curve, poor fit] |  |

Sorted by heavy-atom count (ascending): 3 of the compounds above

| SMILES | Potency | activity change, negative = inhibition |
| --- | --- | --- |
| Cc1cc(C)n(-c2nc(SCC(=O)O)c3c4c(sc3n2)CCCC4)n1 | inconclusive: 12.5 µM [inhibitor, partial curve, poor fit] |  |
| Cc1ccc(NC(=S)NCCN(C2CCCCC2)C2CCCC2)cc1C | inconclusive: 9.96 µM [inhibitor, full curve, poor fit] |  |
| Cc1cc(-c2ccccc2)nc(N2CCC(C(=O)NCc3ccccc3Cl)CC2)n1 |  | inactive: -6.36% |
